Source: PubChem BioAssay AID1224828 (NIAID, 2016)

Purpose: 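Find genes required for NF-kappaB p65 moving into the nucleus after LPS in mouse macrophages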 (primary screen)
Cell system: mouse RAW264.7 G9 macrophage reporter cells (GFP-p65, Tnf promoter-mCherry)
Reagents: siRNA pool against mouse genes, 100 nM
Timing: 2 days siRNA transfection, then 40 min LPS before fixation
Conditions: LPS (Salmonella minnesota R595) at 10 ng/ml
Measured: 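Microscopy ratio of nuclear to perinuclear-ring GFP-p65 signal, scaled to the plate median; gene score is the average of two replicate robust z-scores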
Reading the numbers: p65 translocation robust z-score: higher = more nuclear NF-kappaB p65 after LPS than the plate median; nuclear/cytoplasmic p65 ratio: higher = more nuclear NF-kappaB p65
Rule for the call: 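Active if robust z is above 3.3 (negative regulators) or below -1.56, the Tlr4 control median (positive regulators); activity score 50 or more; control wells not called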
Calls: active = hit (p65 shift raised or lowered); inactive = no clear change
In all, the deposit lists about 17,000 reagents; shown is a random part of them. In the full data, 762 (4.5%) were called active. 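Active calls include both raised and lowered p65 entry, mostly lowered; wells with fewer than 50 cells lack a z-score.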 The raw values are shown without normalisation.

Depletion of Mt4 came out at: p65 translocation robust z-score -1.43; nuclear/cytoplasmic p65 ratio, rep 1 = 1.49; nuclear/cytoplasmic p65 ratio, rep 2 = 1.43; low cell count flag enough cells to score; inactive.
After knock-down of Snap23, the record shows nuclear/cytoplasmic p65 ratio, rep 1 = 1.62; nuclear/cytoplasmic p65 ratio, rep 2 = 1.26; low cell count flag fewer than 50 cells per well; well left out of scoring; inactive.
Set scored p65 translocation robust z-score -0.61; nuclear/cytoplasmic p65 ratio, rep 1 = 1.41; nuclear/cytoplasmic p65 ratio, rep 2 = 1.52; low cell count flag enough cells to score; inactive.
Silencing of Ptcd3 resulted in: nuclear/cytoplasmic p65 ratio, rep 1 = 1.24; nuclear/cytoplasmic p65 ratio, rep 2 = 1.41; low cell count flag fewer than 50 cells per well; well left out of scoring; inactive.
Depletion of Slc75a1 gave: nuclear/cytoplasmic p65 ratio, rep 1 = 1.35; nuclear/cytoplasmic p65 ratio, rep 2 = 1.34; low cell count flag fewer than 50 cells per well; well left out of scoring; inactive.
Hdgfl2 showed p65 translocation robust z-score -0.68; nuclear/cytoplasmic p65 ratio, rep 1 = 1.4; nuclear/cytoplasmic p65 ratio, rep 2 = 1.58; low cell count flag enough cells to score; inactive.
Knock-down of Ltb4r1 resulted in: p65 translocation robust z-score -0.02; nuclear/cytoplasmic p65 ratio, rep 1 = 1.44; nuclear/cytoplasmic p65 ratio, rep 2 = 1.65; low cell count flag enough cells to score; inactive.

Laid out differently: results already given
Set
- p65 translocation robust z-score: -0.61
- nuclear/cytoplasmic p65 ratio, rep 1: 1.41
- nuclear/cytoplasmic p65 ratio, rep 2: 1.52
- low cell count flag: enough cells to score
- call: inactive

Ptcd3
- nuclear/cytoplasmic p65 ratio, rep 1: 1.24
- nuclear/cytoplasmic p65 ratio, rep 2: 1.41
- low cell count flag: fewer than 50 cells per well; well left out of scoring
- call: inactive

The listing continues:
Against Entpd5, the entry reads p65 translocation robust z-score 0.49; nuclear/cytoplasmic p65 ratio, rep 1 = 1.57; nuclear/cytoplasmic p65 ratio, rep 2 = 1.4; low cell count flag enough cells to score; inactive.
After knock-down of B130040O20Rik the results were p65 translocation robust z-score 0.39; nuclear/cytoplasmic p65 ratio, rep 1 = 1.56; nuclear/cytoplasmic p65 ratio, rep 2 = 1.67; low cell count flag enough cells to score; inactive.
For Tex19.2, the entry reads nuclear/cytoplasmic p65 ratio, rep 1 = 1.37; nuclear/cytoplasmic p65 ratio, rep 2 = 1.08; low cell count flag fewer than 50 cells per well; well left out of scoring; inactive.
Silencing of Cryl1 came out at: p65 translocation robust z-score -1.47; nuclear/cytoplasmic p65 ratio, rep 1 = 1.28; nuclear/cytoplasmic p65 ratio, rep 2 = 1.63; low cell count flag enough cells to score; inactive.
Silencing of Trrap gave: p65 translocation robust z-score -1.41; nuclear/cytoplasmic p65 ratio, rep 1 = 1.41; nuclear/cytoplasmic p65 ratio, rep 2 = 1.45; low cell count flag enough cells to score; inactive.
With knock-down of Retsat the results were nuclear/cytoplasmic p65 ratio, rep 1 = 1.3; nuclear/cytoplasmic p65 ratio, rep 2 = 1.33; low cell count flag fewer than 50 cells per well; well left out of scoring; inactive.
For Adamtsl1 the deposit lists p65 translocation robust z-score 0.12; nuclear/cytoplasmic p65 ratio, rep 1 = 1.41; nuclear/cytoplasmic p65 ratio, rep 2 = 1.45; low cell count flag enough cells to score; inactive.
